{"source": "PubChem BioAssay AID743121 | NCATS – 2013", "test": "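Genes whose silencing strengthens cell killing by camptothecin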 (primary screen)", "system": "MDA-MB-231 cells, a human breast cancer line", "knock-down reagent": "single siRNA against human genes, 20 nM siRNA (0.8 pmol per well)", "time to read-out": "120 h (drug added 48 h after transfection, read 72 h later)", "challenge": "camptothecin 20 nM (about EC30) for 72 h; vehicle 0.1% DMSO in parallel plates", "detection": "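Cell viability by ATP luminescence (CellTiter-Glo) as % of non-targeting siRNA wells, and the log2 ratio of viability without drug over viability with camptothecin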", "scale": "log2 vehicle/camptothecin viability: higher = stronger sensitisation to camptothecin; viability with camptothecin: higher = more viable cells", "units": "viability with camptothecin in % of control", "rule for the call": "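Active genes have an RSA gene-level p-value below 0.001, computed from the ratios of their separate siRNAs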", "note": "Here is a random part of about 26,000 reagents tested. 167 of them (0.63%) count as active. 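Calls are per gene from RSA p-values that are not deposited; an individual active-marked siRNA can sensitise only weakly.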 Unmarked entries are inactive. The numbers tell different reagents against one gene apart. Not all columns of the deposit are shown."}
{"gene knocked down": "ADAM7 (ADAM metallopeptidase domain 7)", "reagent no.": 1, "log2 vehicle/camptothecin viability": -0.211, "viability with camptothecin": 108}
{"gene knocked down": "ADAM7 (ADAM metallopeptidase domain 7)", "reagent no.": 2, "log2 vehicle/camptothecin viability": -0.055, "viability with camptothecin": 98.9}
{"gene knocked down": "ADAM7 (ADAM metallopeptidase domain 7)", "reagent no.": 3, "log2 vehicle/camptothecin viability": 0.281, "viability with camptothecin": 89.3}
{"gene knocked down": "ADAM7 (ADAM metallopeptidase domain 7)", "reagent no.": 4, "log2 vehicle/camptothecin viability": -0.0133, "viability with camptothecin": 89.3}
{"gene knocked down": "OLIG2 (oligodendrocyte transcription factor 2)", "reagent no.": 1, "log2 vehicle/camptothecin viability": -0.194, "viability with camptothecin": 108}
{"gene knocked down": "OLIG2 (oligodendrocyte transcription factor 2)", "reagent no.": 2, "log2 vehicle/camptothecin viability": -0.219, "viability with camptothecin": 65.5}
{"gene knocked down": "OLIG2 (oligodendrocyte transcription factor 2)", "reagent no.": 3, "log2 vehicle/camptothecin viability": -0.195, "viability with camptothecin": 62.3}
{"gene knocked down": "ATXN3L (ataxin 3 like)", "reagent no.": 1, "log2 vehicle/camptothecin viability": "3.32 (active)", "viability with camptothecin": 8.73}
{"gene knocked down": "ATXN3L (ataxin 3 like)", "reagent no.": 2, "log2 vehicle/camptothecin viability": "0.19 (active)", "viability with camptothecin": 82.8}
{"gene knocked down": "ATXN3L (ataxin 3 like)", "reagent no.": 3, "log2 vehicle/camptothecin viability": "0.61 (active)", "viability with camptothecin": 47.5}
{"gene knocked down": "ATXN3L (ataxin 3 like)", "reagent no.": 4, "log2 vehicle/camptothecin viability": "-0.426 (active)", "viability with camptothecin": 132}
{"gene knocked down": "ADCK5 (aarF domain containing kinase 5)", "reagent no.": 1, "log2 vehicle/camptothecin viability": -0.432, "viability with camptothecin": 44.9}
{"gene knocked down": "ADCK5 (aarF domain containing kinase 5)", "reagent no.": 2, "log2 vehicle/camptothecin viability": -0.458, "viability with camptothecin": 88}
{"gene knocked down": "ADCK5 (aarF domain containing kinase 5)", "reagent no.": 3, "log2 vehicle/camptothecin viability": -0.598, "viability with camptothecin": 75.2}
{"gene knocked down": "ADCK5 (aarF domain containing kinase 5)", "reagent no.": 4, "log2 vehicle/camptothecin viability": -0.0412, "viability with camptothecin": 84.5}
{"gene knocked down": "CENPU (centromere protein U)", "reagent no.": 1, "log2 vehicle/camptothecin viability": 0.436, "viability with camptothecin": 106}
{"gene knocked down": "CENPU (centromere protein U)", "reagent no.": 2, "log2 vehicle/camptothecin viability": -0.0725, "viability with camptothecin": 90.6}
{"gene knocked down": "CENPU (centromere protein U)", "reagent no.": 3, "log2 vehicle/camptothecin viability": -0.0516, "viability with camptothecin": 115}
{"gene knocked down": "SPEG (striated muscle enriched protein kinase)", "reagent no.": 1, "log2 vehicle/camptothecin viability": 0.115, "viability with camptothecin": 93.8}
{"gene knocked down": "SPEG (striated muscle enriched protein kinase)", "reagent no.": 2, "log2 vehicle/camptothecin viability": 0.216, "viability with camptothecin": 73.4}
{"gene knocked down": "SPEG (striated muscle enriched protein kinase)", "reagent no.": 3, "log2 vehicle/camptothecin viability": -0.449, "viability with camptothecin": 69.3}
{"gene knocked down": "SPEG (striated muscle enriched protein kinase)", "reagent no.": 4, "log2 vehicle/camptothecin viability": -0.194, "viability with camptothecin": 23.1}
{"gene knocked down": "PTGES (prostaglandin E synthase)", "reagent no.": 1, "log2 vehicle/camptothecin viability": -0.264, "viability with camptothecin": 113}
{"gene knocked down": "PTGES (prostaglandin E synthase)", "reagent no.": 2, "log2 vehicle/camptothecin viability": -0.000926, "viability with camptothecin": 75.4}
{"gene knocked down": "PTGES (prostaglandin E synthase)", "reagent no.": 3, "log2 vehicle/camptothecin viability": -0.314, "viability with camptothecin": 76.5}
{"gene knocked down": "PTGES (prostaglandin E synthase)", "reagent no.": 4, "log2 vehicle/camptothecin viability": 0.214, "viability with camptothecin": 77.8}
{"gene knocked down": "PTGER2 (prostaglandin E receptor 2)", "reagent no.": 1, "log2 vehicle/camptothecin viability": -0.0591, "viability with camptothecin": 89.2}
{"gene knocked down": "PTGER2 (prostaglandin E receptor 2)", "reagent no.": 2, "log2 vehicle/camptothecin viability": -0.573, "viability with camptothecin": 75.5}
{"gene knocked down": "PTGER2 (prostaglandin E receptor 2)", "reagent no.": 3, "log2 vehicle/camptothecin viability": -0.453, "viability with camptothecin": 98.9}
{"gene knocked down": "PTGER2 (prostaglandin E receptor 2)", "reagent no.": 4, "log2 vehicle/camptothecin viability": 0.107, "viability with camptothecin": 104}
{"gene knocked down": "PIN1 (peptidylprolyl cis/trans isomerase, NIMA-interacting 1)", "reagent no.": 1, "log2 vehicle/camptothecin viability": -0.416, "viability with camptothecin": 54}
{"gene knocked down": "PIN1 (peptidylprolyl cis/trans isomerase, NIMA-interacting 1)", "reagent no.": 2, "log2 vehicle/camptothecin viability": -0.415, "viability with camptothecin": 47.1}
{"gene knocked down": "PIN1 (peptidylprolyl cis/trans isomerase, NIMA-interacting 1)", "reagent no.": 3, "log2 vehicle/camptothecin viability": 0.241, "viability with camptothecin": 36.6}
{"gene knocked down": "PIN1 (peptidylprolyl cis/trans isomerase, NIMA-interacting 1)", "reagent no.": 4, "log2 vehicle/camptothecin viability": -1.21, "viability with camptothecin": 10.9}
{"gene knocked down": "ITGA9 (integrin subunit alpha 9)", "reagent no.": 1, "log2 vehicle/camptothecin viability": -0.678, "viability with camptothecin": 77.9}
{"gene knocked down": "ITGA9 (integrin subunit alpha 9)", "reagent no.": 2, "log2 vehicle/camptothecin viability": -0.183, "viability with camptothecin": 67.2}
{"gene knocked down": "ITGA9 (integrin subunit alpha 9)", "reagent no.": 3, "log2 vehicle/camptothecin viability": -0.474, "viability with camptothecin": 51}
{"gene knocked down": "ITGA9 (integrin subunit alpha 9)", "reagent no.": 4, "log2 vehicle/camptothecin viability": -0.0971, "viability with camptothecin": 70.8}
